The list shows a part of the results.
B1: il10ra_site1_normal_mot_HHH_b1_05056_000000217_0001_1_20_H_._HHH_b2_07648_af2_0001_0000800026_0000001_0 (protein)
chain: SSSSSEVEEEVRKILEEAEELAEEGDPRKVARVLQEALRVALENSDQEALRLVWKVVKELTSSSS
B2: il10ra_site1_normal_mot_HHH_b2_03434_000000017_0001_1_19_H_._HHH_b1_03692_0001_0000100001_0000001_0 (protein)
chain: SSSSDEAYELVREAIEEVSELEREGNEEEARELARELIELLEELGNLNMLANAEHLLRLLESSSS
B3: il10ra_site1_normal_mot_HHH_b2_08186_000000021_0001_43_56_H_._HHH_b2_06107_0001_0000300018_0000001_0 (protein)
chain: SSSSSSSDAEEEVEELLEEAKHVDREEAMRLAIEALELAYRSRNPELLQLIWRVLKELSSSSSSS
B4: il10ra_site1_sap_33_mot_HHH_b2_05343_000000235_0001_19_35_H_._HHH_b1_03268_0001_0000300049_0000002_0_0001_af2pred_0001 (protein)
chain: SSSSSDAEDLAKKAIEIAEELEEEGNPELARISLRNAALAAKDRNDEEALEEIEKVLEELSSSSS
B5: il10ra_site1_normal_mot_05ca327611f5605f0dd8494b449afcbf_0001_1_000000248_0001_35_51_H_._HHH_b2_04947_af2_0001_0000300008_0000001_0 (protein)
chain: SSSSDAEVVQEVQELIREAAELIRNGDPEEAEEVLEEARRLAEELNNPILRFAVRAIAQALSSSS
B6: il10ra_site1_normal_mot_HHH_b2_07579_000000275_0001_1_19_H_._HHH_b1_05919_af2_0001_0000100002_0000002_0 (protein)
chain: SSSSSDEAYEAARRMAELLHRYEREGDERYREEIERLLEEIEELGNEVVLWSARHILRDVSSSSS
B7: il10ra_site1_normal_mot_HHH_b1_02665_000000293_0001_1_18_H_._HHH_b1_06547_0001_0000600033_0000002_0 (protein)
chain: SSSSDEEVRELVKEAEELAEELGDRNILFLLKQVLKLAEELGDPKLFERLHQLAEIFLRQNSSSS
B8: il10ra_site1_normal_mot_HHH_b2_03220_af2_000000223_0001_23_40_H_._HHH_b1_08445_0001_0000200024_0000002_0 (protein)
chain: SSSSSEEVWELLRKALELLADGNPEEARKVLEEAEELAEEENNENLKFAIRHLHRAIEDLSSSSS
B9: il10ra_site1_sap_20_mot_ems_3hM_235_000000244_0001_46_64_H_._67e1e90ad417e81182229281e7547621_0001_0001_0000500018_0000001_0_0001_af2pred_0001 (protein)
chain: SSSSSREEEALKLALRFLEFAIREGSERSAKILIKAIRELVEKSNNEEAEEELERLERELKSSSS
B10: il10ra_site1_normal_mot_HHH_b1_05056_000000217_0001_1_20_H_._HHH_b1_07279_0001_0000500040_0000001_0 (protein)
chain: SSSSSDEEEVRELLEEAEELARRGNPREASRVLLRALRIIYEANNPELLRELWEVVRRVASSSSS
B11: il10ra_site1_sap_23_mot_HHH_b1_06798_000000292_0001_1_19_H_._HHH_b1_01501_0001_0000100001_0000001_0_0001 (protein)
chain: SSSSDVEEEVEELLEEAKRVYEEGDDHKAAEILAKAMRLAYEAGDAELMRKVQRLSMRLLSSSSS
B12: il10ra_site1_sap_17_mot_HHH_b2_00076_000000055_0001_40_55_H_._HHH_b1_07763_af2_0001_0000100002_0000002_0_0001_af2pred_0001 (protein)
chain: SSSSDLEEEVRELLEEAKRIEDPEEVRELLREAAAIAARARDPELSYLILRVFAELTKERSSSSS
B13: il10ra_site1_normal_mot_HHH_b2_05813_000000266_0001_1_19_H_._HHH_b1_02254_0001_0000200018_0000001_0 (protein)
chain: SSSSSDEEERVFQLLVRLQRLLDEGDEERLRELLEEAKELAEELNDPVLRRAIEIIEELGSSSSS
B14: il10ra_site1_sap_20_mot_ems_3hC_416_0001_000000048_0001_1_19_H_._HHH_b1_02452_af2_0001_0000100004_0000002_0_0001 (protein)
chain: SSSSSSDEAQRIFELIEEAMQIEDPEEAQELLEEALELAEELNSWNLRVNVEYALEMLSSSSSSS
B15: il10ra_site1_normal_mot_HHH_b2_06142_af2_000000101_0001_1_18_H_._HHH_b1_07925_af2_0001_0000100002_0000002_0_af2pred_0001 (protein)
chain: SSSSDEEVKKETLKVQLEALRLLRNGNPEEARKVLEEAFEYLEELGNRRALEAVELLLEEISSSS
B16: il10ra_site1_normal_mot_HHH_b2_06142_af2_000000101_0001_1_18_H_._HHH_b2_00532_0001_0000100002_0000001_0_af2pred_dldesign_0_af2pred (protein)
chain: SSSSSTPEAEAALKEAALAMSIATKEEQKELFDLLVEFHKTRDPEVLERLRELIERIKAKSSSSS
B17: il10ra_site1_sap_25_mot_HHH_b2_02022_af2_000000170_0001_1_16_H_._dddd11d5de81826a7497a0a2545a4374_0001_1_af2_0001_0000500020_0000001_0_0001 (protein)
chain: SSSSDEVYEIARRAAEELLELIERGDDEEAEKVLEEARRELEELGSELAVRVLEWFFRRQRSSSS
B18: il10ra_site1_sap_26_mot_HHH_b2_07145_000000158_0001_24_40_H_._HHH_b1_04845_af2_0001_0000600034_0000001_0_0001 (protein)
chain: SSSSDEERERLVELLREVFRLLLRGDPERARELLEEAQEIAEELGDEQAKFALRDLEQAVNSSSS
B19: il10ra_site1_sap_17_mot_HHH_b1_02062_000000185_0001_1_20_H_._HHH_b2_03390_0001_0000100002_0000003_0_0001 (protein)
chain: SSSSSSEYEEEIRELLEEAKHIEDADEVYRLLEEAIKLATQANDPELAKLVMEVLREWLHSSSSS
B20: il10ra_site1_sap_16_mot_HHH_b2_06321_af2_000000133_0001_42_55_H_._HHH_b2_01905_0001_0000200026_0000001_0_0001 (protein)
chain: SSSSSDRRRQIYELLRRVVELDLEGNEEEARELLEEARELAEEANDRVMQEVIKHLERQLSSSSS
B21: il10ra_site1_normal_mot_HHH_b1_05357_000000034_0001_23_39_H_._HHH_b2_08306_af2_0001_0000300010_0000002_0 (protein)
chain: SSSSSSEEEYKERVEELLEEAKKIEDRARVSHILIRAYAIAHELGDEELREEITKVAQELSSSSS
B22: il10ra_site1_sap_25_mot_HHH_b1_05357_000000034_0001_23_39_H_._HHH_b2_00731_0001_0000300016_0000001_0_0001_af2pred_0001 (protein)
chain: SSSSDEEVKRALRFAKWLAEQGDREAVEFFLKWAKQLAERLGDEELEELIKEVEEEVQKLLSSSS
B23: il10ra_site1_sap_15_mot_HHH_b2_01205_000000166_0001_1_19_H_._71be647701ff1b2f9c0375d933d1ad3f_0001_0001_0000600024_0000001_0_0001 (protein)
chain: SSSSDETQELYELMEKLAKATHEGDKELVEELYEEARELAEELNNRLARIQIEFAFKRAHSSSSS
B24: il10ra_site1_normal_mot_HHH_b2_00943_af2_000000149_0001_1_17_H_._HHH_b2_00163_af2_0001_0000400008_0000001_1 (protein)
chain: SSSSDEEEEELRRLAEEAIRVAEELGDPNLAFLVRQALKALEIAGDEHAREILENLLKQILSSSS
B25: il10ra_site1_sap_23_mot_HHH_b2_02267_000000141_0001_1_20_H_._ems_3hC_501_0001_0001_0000100001_0000001_0_0001_af2pred_0001 (protein)
chain: SSSSDEEKEALQLAAEASALAIRRGDEETLERLLRLQVRLYREGDPELAKELEKLAEEVLSSSSS
B26: il10ra_site1_sap_24_mot_HHH_b2_03183_af2_000000055_0001_40_56_H_._HHH_b2_05012_0001_0000200012_0000001_0_0001 (protein)
chain: SSSSSSSFREAYELVEEAFEIEDPEEVQELLERALELAEENNNWVLFFSIRHALEAERSSSSSSS
B27: il10ra_site1_normal_mot_HHH_b1_02492_000000051_0001_1_21_H_._HHH_b1_08445_0001_0000100002_0000002_0 (protein)
chain: SSSSSDEVYELLRKAIELLRDGNPEEAEKVLEEAEELARELNNEVLEVQIEFLKRLIERNSSSSS
B28: il10ra_site1_normal_mot_HHH_b1_00814_af2_000000078_0001_43_57_H_._HHH_b1_00467_0001_0000400018_0000001_0_af2pred_0001 (protein)
chain: SSSSSDEEVEERIEELSEEAKHVDAETAFELLKEMAELAKEVNDPELEQFVKEVAAELISSSSSS
B29: il10ra_site1_normal_mot_HHH_b1_05056_000000217_0001_1_20_H_._HHH_b1_06255_af2_0001_0000400025_0000001_0_af2pred_0001 (protein)
chain: SSSSSEEEQRVKELLEEIRELLEEGDYREALRLLIEAAKIAAEIDNKELLQIIFELLRRVGSSSS
B30: il10ra_site1_sap_18_mot_HHH_b2_08144_af2_000000046_0001_38_52_H_._HHH_b2_07064_af2_0001_0000200009_0000002_0_0001 (protein)
chain: SSSSSSDINELAQEAIHLAIQRGDEEVLREIWRLVHEYGKEGDPRYREELEELLEELRSSSSSSS
B31: il10ra_site1_sap_18_mot_HHH_b1_02464_000000069_0001_1_19_H_._HHH_b1_02930_0001_0000700049_0000001_0_0001 (protein)
chain: SSSSSQEEQHARAVLWFAEAALRDGDPHAARKMLEYAEELAEELGDEELLEKIQRLLKEVNSSSS
B32: il10ra_site1_sap_17_mot_HHH_b2_02053_af2_000000006_0001_3_19_H_._HHH_b2_05903_0001_0000100004_0000001_0_0001 (protein)
chain: SSSSDEKERLEELEERVEELIEEGDREEVLRVLFELVRVAFRLNDPEALRRAWELLKRVASSSSS
B33: il10ra_site1_sap_18_mot_HHH_b2_03220_af2_000000223_0001_23_40_H_._HHH_b1_01656_0001_0000800049_0000001_0_0001 (protein)
chain: SSSSSSDAAHLQQEALRAAFQNSDEETLRQLDELYRRIVEEGDPRLEEELEELLEELRSSSSSSS
B34: il10ra_site1_sap_17_mot_HHH_b2_00134_af2_000000008_0001_38_52_H_._HHH_b2_08161_0001_0000600031_0000002_0_0001_af2pred_0001 (protein)
chain: SSDEEIREHAEEVSEEAKELVKKNPEEARKAVAELFMEAAENNDEELLRAAAEVYQEVFKYIKSS
B35: il10ra_site1_normal_mot_2c1a291787c6f40772924d4e9068d803_0001_af2_000000187_0001_34_48_H_._ems_3hM_441_0001_0000400013_0000001_0_af2pred_0001 (protein)
chain: DEELRERIAKLFWLLSKLLKDDPELAKRVFQIAARAIRAVNNGDEKLAEELVEELEELVRKLSSS
B36: il10ra_site1_sap_24_mot_HHH_b1_01879_000000050_0001_1_18_H_._HHH_b1_04021_0001_0000100001_0000001_0_0001 (protein)
chain: SSSSSSDREEEVEELLEEAKEVPDPRERTRILLEALRIAIQASDPELLRLVWRVVKELSSSSSSS
B37: il10ra_site1_sap_19_mot_HHH_b1_00531_af2_000000024_0001_1_19_H_._HHH_b1_05833_af2_0001_0000100001_0000001_0_0001 (protein)
chain: SSSSDEELEEFEEEIEELLKEGDYERALRLIAEALRHAFQANDPEVLRRLWELAKEAARSSSSSS

Molecular target: il10ra, Q13651
Assay: yeast display titration

Apparent Kd, inactive:
B1 no binding seen
B2 no binding seen
B3 no binding seen
B4 no binding seen
B5 no binding seen
B6 no binding seen
B7 no binding seen
B8 no binding seen
B9 no binding seen
B10 no binding seen
B11 no binding seen
B12 no binding seen
B13 no binding seen
B14 no binding seen
B15 no binding seen
B16 no binding seen
B17 no binding seen
B18 no binding seen
B19 no binding seen
B20 no binding seen
B21 no binding seen
B22 no binding seen
B23 no binding seen
B24 no binding seen
B25 no binding seen
B26 no binding seen
B27 no binding seen
B28 no binding seen
B29 no binding seen
B30 no binding seen
B31 no binding seen
B32 no binding seen
B33 no binding seen
B34 no binding seen
B35 no binding seen
B36 no binding seen
B37 no binding seen

Pulled one by one from the entries so far:
Apparent Kd, inactive:
B36 no binding seen
B20 no binding seen
B12 no binding seen

— PMC10163288
